Reference: publication PMC10163288
The other results are listed elsewhere or left out.

B1: il10ra_site1_sap_25_mot_HHH_b1_06816_000000239_0001_1_19_H_._HHH_b1_08396_af2_0001_0000100002_0000002_0_0001 (protein)
chain: SSSSSSSDAEEEVERLLEEAEEDPRHALELLQEAIHLAVQASDPELLRAVWEVLKRLASSSSSSS
B2: il10ra_site1_sap_21_mot_HHH_b2_03425_000000200_0001_22_39_H_._HHH_b1_00826_0001_0000300018_0000001_0_0001 (protein)
chain: SSSSSSDDALELVQKAFHAALRGNPEEAEELLEEARKIAEELGNEKVLEMIRDLERALSSSSSSS
B3: il10ra_site1_sap_24_mot_HHH_b2_00984_000000042_0001_1_20_H_._a9737a16b0b5168389c1a5856fbd9e1f_0001_0001_0000400005_0000001_0_0001 (protein)
chain: SSSSSDVSERLYELSRRAVELDSEGNPEEARELLEEAEELARENNNQVLLANIEYLLELLSSSSS
B4: il10ra_site1_sap_17_mot_HHH_b1_06790_000000034_0001_1_15_H_._HHH_b2_02172_0001_0000300017_0000002_0_0001_af2pred_0001 (protein)
chain: SSSSSDRERVERAAKLARRALELGDPELAKTLLKKALELAKRAGDEELQEEIEELLEELGSSSSS
B5: il10ra_site1_sap_25_mot_2c1a291787c6f40772924d4e9068d803_0001_af2_000000187_0001_34_48_H_._HHH_b2_07308_af2_0001_0000400007_0000002_0_0001_af2pred_0001 (protein)
chain: SSSSSTREEVIKRVIELLREARRIEDPEEREEVLEEAHRLAEEGNNELLKFIVESLERKLSSSSS
B6: il10ra_site1_normal_mot_HHH_b2_05548_000000224_0001_41_54_H_._HHH_b2_03931_0001_0000300038_0000001_0 (protein)
chain: SSSSSDEEELERLVKELEEALKEGDERLVAKLTTRLFDLVAKTNDEEAQRVVREAVEFINSSSSS
B7: il10ra_site1_sap_20_mot_b26a303360aa2756ef5b79665ce52f45_0001_000000179_0001_1_11_H_._HHH_b2_05203_0001_0000200021_0000001_0_0001 (protein)
chain: SSSSDEEMQEVFELLREAAEAHHEGDKEEARKILERAEEIAEELGNILLLWQVEFLLRLLKSSSS
B8: il10ra_site1_sap_28_mot_HHH_b1_08477_000000091_0001_40_57_H_._HHH_b2_08053_0001_0000100005_0000001_0_0001 (protein)
chain: SSSSDDYEHAKKLIEEAAQLQHNGNPEEAERVLKELEEFLEERNDEVTLWAVRHLLKLIERSSSS
B9: il10ra_site1_sap_29_mot_HHH_b1_04100_af2_000000180_0001_1_19_H_._HHH_b1_08236_0001_0000200021_0000001_0_0001 (protein)
chain: SSSSDEERLEELLKELEELIEEGDRERALELMQEIIRLAFRLSDPEALRALWELAEKLKKSSSSS
B10: il10ra_site1_normal_mot_HHH_b2_03801_000000188_0001_20_36_H_._HHH_b2_00015_0002_0000300022_0000002_1_af2pred_0001 (protein)
chain: SSSSSDEAERAVRLLLRAAKQIENEEAVRLTLRDAKFTAEFLNDEELQELVREVAEELLSSSSSS
B11: il10ra_site1_normal_mot_HHH_b1_02881_000000046_0001_1_20_H_._HHH_b1_08287_0001_0000300053_0000001_0 (protein)
chain: SSSSSRFEERLEQLLEELEELIREGDSDEFYRVVREIIELAIEGNNEEFLRRLEELLQEALSSSS
B12: il10ra_site1_normal_mot_HHH_b1_08446_000000041_0001_1_19_H_._HHH_b2_02685_0001_0000300031_0000001_0 (protein)
chain: SSSSSSYREEVEELLEEAKHIEDVDERYRVLREAIELAVEGQDPEAERLVHEVLRELLRSSSSSS
B13: il10ra_site1_normal_mot_2c1a291787c6f40772924d4e9068d803_0001_af2_000000187_0001_34_48_H_._HHH_b2_03753_af2_0001_0000200004_0000001_0_af2pred_0001 (protein)
chain: SSSSDVKERVLHLLIRAFRLFEQGNEEEAKRLAEEAHELAEEEGDQRLAHAVRAFEELLRSSSSS
B14: il10ra_site1_sap_22_mot_HHH_b2_04057_000000065_0001_1_20_H_._HHH_b2_05849_0001_0000400020_0000001_1_0001 (protein)
chain: DELEEELRELVKRGDEEKVAELAAKVAKEKGSFSPEQLRALKLFIRALFRDNEEVAEHLARTVIS
B15: il10ra_site1_sap_19_mot_HHH_b2_03708_000000000_0001_1_18_H_._HHH_b1_04704_0001_0000300030_0000001_0_0001 (protein)
chain: SSSSTDELFEEVKRIIEEAIRLWREGNPEEARRLVEEALEEARENNNWALVWALEHLLRDLSSSS
B16: il10ra_site1_sap_13_mot_HHH_b1_05860_000000142_0001_1_19_H_._HHH_b2_05206_af2_0001_0000500019_0000001_0_0001_1 (protein)
chain: SSSSSAAERSVKRLLEAAKDIDDPEYVRLTLRFAKASARANNNEELEREIEEVERELKELLSSSS
B17: il10ra_site1_sap_24_mot_HHH_b2_08186_000000021_0001_43_56_H_._HHH_b1_07178_af2_0002_0000100005_0000001_0_0001 (protein)
chain: SSSSDDLTEEAWEILRKVLELRAQGDEEKARELLEEAEEIAEEAGNFILKFVIEQLQRQLKSSSS
B18: il10ra_site1_sap_23_mot_HHH_b2_00475_000000107_0001_44_57_H_._HHH_b1_05482_0001_0000100004_0000002_0_0001_af2pred_0001 (protein)
chain: DEIEELLRLLAQALIEAQKRNDEEALKLLLEALVLLHRALQKNDEELKEEANEFAKEVIKEAESS
B19: il10ra_site1_normal_mot_HHH_b1_05357_000000034_0001_23_39_H_._ems_3hC_618_0001_0001_0000600039_0000001_0_af2pred_0001 (protein)
chain: KREALDRATYLIIRAFALANDDDPEAREEAEELIKEAEELAKEANDPSVEFAVKLAKELIEEACS
B20: il10ra_site1_sap_26_mot_HHH_b1_03260_000000175_0001_42_57_H_._HHH_b1_03105_0001_0000200023_0000001_0_0001 (protein)
chain: SSSSSSDEEERLEELLEELHKAKDLEEIARIAKEAVRIAIQLNDHERFEELWKLAMRLFSSSSSS
B21: il10ra_site1_sap_12_mot_39ab2cb694c8b9c1dc7e65c0d672c93e_0001_000000010_0001_53_65_H_._HHH_b1_04946_0001_0000700037_0000001_0_0001 (protein)
chain: SSSSSEEIQEAMRLLEEASELDQNGNPEEAEKVLEEAEKIAEEGGNWSLRHALKHLLRVIRSSSS
B22: il10ra_site1_sap_23_mot_HHH_b1_07527_000000076_0001_1_15_H_._HHH_b2_01966_af2_0001_0000300022_0000001_0_0001 (protein)
chain: SSSSSDENREAYELVEEAFKIEDPEERERLLEEAQELAEEAGNFSLLFAIRHALEDARRGSSSSS
B23: il10ra_site1_sap_23_mot_9c3e5e2d2b9ffb70dc788f52fbfab6d5_0001_1_000000198_0001_1_14_H_._HHH_b1_05469_0001_0000200014_0000001_1_0001 (protein)
chain: SSSSDKEEIEELLKQLEEALREGDRELFTKILDRVMELIEKLGDIELAEELQELFREAVQKSSSS
B24: il10ra_site1_sap_25_mot_HHH_b1_02809_af2_000000277_0001_40_57_H_._HHH_b1_06904_0001_0000300018_0000002_0_0001 (protein)
chain: SSSEHDEFYRVVKEALEAAANKDREKAKELVEEAEEIAEELGSRVARWIVEFVEEAVKRNTKSSS
B25: il10ra_site1_normal_mot_HHH_b2_00273_000000062_0001_23_39_H_._HHH_b2_06886_0001_0000200026_0000001_0 (protein)
chain: SSSSDEEERELEKLLEEVEELAREGDEERFLRTVMRALQLAFKLGDQEVLQALWRLVKLLSSSSS
B26: il10ra_site1_normal_mot_HHH_b1_02997_000000220_0001_39_52_H_._HHH_b1_04034_0001_0000300020_0000001_0 (protein)
chain: SSSSDVEELYELSREAAKLFRDGNPEEAQRVLEEAEELAEELNNPNFLHNLRYLLRKIRESSSSS
B27: il10ra_site1_normal_mot_HHH_b1_05254_000000006_0001_1_19_H_._HHH_b2_01851_af2_0001_0000100002_0000002_0 (protein)
chain: SSSSDEAYRLAREVIERVVELFRRGNEEEAKQLLEEALEEVERLNNEAAFWALEHLLRVLNSSSS
B28: il10ra_site1_normal_mot_HHH_b2_03183_af2_000000055_0001_40_56_H_._HHH_b1_04703_0001_0000100001_0000003_0 (protein)
chain: SSSSSDEERELVEAALRLAKQVSPRTVRFLLIAAEKRAELTNDPELRRLAEEIEEILEELSSSSS
B29: il10ra_site1_normal_mot_HHH_b2_06857_af2_000000179_0001_42_54_H_._HHH_b2_07872_af2_0001_0000600039_0000002_0 (protein)
chain: SSSSSNEELERLFKLAREAAELHQKDPEEAEEVLREAQELAEELNNELTAIQLKFLLRRLSSSSS
B30: il10ra_site1_normal_mot_HHH_b2_00277_af2_000000172_0001_1_17_H_._HHH_b2_07191_0001_0000200011_0000001_0_af2pred_0001 (protein)
chain: SSSSDLEEKIEEVEEKVREALERGDDELAEELVRRLSKEVARARDPEASHLVTRLYSLVNSSSSS
B31: il10ra_site1_sap_26_mot_HHH_b2_03328_af2_000000127_0001_1_19_H_._HHH_b1_04763_0001_0000200024_0000001_0_0001 (protein)
chain: SSSSDETQEALRLVIEAFRLLARGDPEEAKRVLEEALELAEEAGTPLAEVIRNLLEAIEASSSSS
B32: il10ra_site1_normal_mot_HHH_b2_01397_000000078_0001_23_39_H_._HHH_b1_06054_0001_0000100001_0000002_0 (protein)
chain: SSSSDEEIRRYVKLTARFARFLLEEGDERAARRLVHAAADIARRNNDPELLRELEELLEELSSSS
B33: il10ra_site1_normal_mot_HHH_b2_02736_000000092_0001_22_38_H_._HHH_b1_00249_af2_0001_0000100002_0000001_0 (protein)
chain: SSSSDERAQEVYELLREAIELSRKDPEKAEEVAEEALELAEELNNEVLAFVIRFLLREIRGSSSS
B34: il10ra_site1_normal_mot_HHH_b1_05056_000000217_0001_1_20_H_._HHH_b1_05974_af2_0001_0000300011_0000001_0 (protein)
chain: SSSSDEEDEERVEELLEEAKHVDQEEVAELLLEALRLALELQDPELLRLVWEVVKELARKSSSSS
B35: il10ra_site1_normal_mot_3c6ad1a4bc7d4f5cf55cee527202d42a_0001_000000108_0001_32_49_H_._HHH_b1_02478_af2_0001_0000300018_0000001_0 (protein)
chain: SSSSDKEEEIFQLRIRAYRAAQKGNEEEAQELLEKALKLAEEINDEAAREAVRLLLEELESSSSS
B36: il10ra_site1_sap_24_mot_HHH_b2_06795_000000133_0001_42_56_H_._HHH_b1_08435_0001_0000300022_0000002_0_0001_af2pred_0001 (protein)
chain: SSSSSSEEEQLERLLELIREALEAGDKEQARLAIRLAELVAKLLGNEEILEELEELHELLSSSSS
B37: il10ra_site1_normal_mot_HHH_b2_06311_000000217_0001_1_16_H_._HHH_b1_07520_0001_0000300025_0000002_0_af2pred_0001 (protein)
chain: SSSSSEAERAIRFLLRAVKELLKNGDPEAAKLALRFARLLAEQLNDPELRELVEEIEELIRSSSS

molecular target: il10ra, Q13651; assay: yeast display titration

Apparent Kd, inactive:
B1 no binding seen
B2 no binding seen
B3 no binding seen
B4 no binding seen
B5 no binding seen
B6 no binding seen
B7 no binding seen
B8 no binding seen
B9 no binding seen
B10 no binding seen
B11 no binding seen
B12 no binding seen
B13 > 437 nM
B14 no binding seen
B15 no binding seen
B16 no binding seen
B17 no binding seen
B18 no binding seen
B19 no binding seen
B20 no binding seen
B21 no binding seen
B22 no binding seen
B23 no binding seen
B24 no binding seen
B25 no binding seen
B26 no binding seen
B27 no binding seen
B28 no binding seen
B29 no binding seen
B30 no binding seen
B31 no binding seen
B32 no binding seen
B33 no binding seen
B34 no binding seen
B35 no binding seen
B36 no binding seen
B37 no binding seen

For convenience, part of the list above.
Apparent Kd, inactive:
B26 no binding seen
B27 no binding seen
B28 no binding seen
